# Results reported in the supplement of paper PMC9744312.
# Counter-ions that a name gives are not always drawn. This is one part of the list. This is a noisy data set.
# Tested on: Peyronie's disease tunica albuginea primary fibroblasts
# Assay: inhibition of TGF-beta1-induced alpha-SMA expression (myofibroblast transformation), relative to TGF-beta1-only and untreated controls; higher = stronger inhibition of myofibroblast transformation
# Settings: 10 µM; TGF-beta1 10 ng/mL; 72 h
row,Structure (SMILES),inhibition of TGF-beta1-induced alpha-SMA expression
1,O=C(C[S+]([O-])Cc1ccco1)NC/C=C\COc1cc(CN2CCCCC2)ccn1 (stereo unspecified) [Lafutidine],13.4%
2,C#CCC(Cc1cnc2nc(N)nc(N)c2n1)c1ccc(C(=O)N[C@@H](CCC(=O)O)C(=O)O)cc1 (stereo partly specified) [Pralatrexate],3.47%
3,O=C(c1ccccc1)c1ccc2n1CCC2C(=O)O (stereo unspecified) [Ketorolac],22.8%
4,COc1c(N2CCNC(C)C2)c(F)cc2c(=O)c(C(=O)O)cn(C3CC3)c12 (stereo unspecified) [Gatifloxacin],-12.6%
5,CN(C)C/C=C/C(=O)Nc1cc2c(Nc3ccc(F)c(Cl)c3)ncnc2cc1O[C@H]1CCOC1 [Afatinib (BIBW2992)],98.9%
6,CN(C)C/C=C/C(=O)Nc1cc2c(Nc3ccc(F)c(Cl)c3)ncnc2cc1O[C@H]1CCOC1 [Afatinib (BIBW2992) Dimaleate],> 100%
7,CCN[C@@H]1C[C@H](N)[C@@H](O[C@H]2OC(CN)=CC[C@H]2N)[C@H](O)[C@H]1O[C@H]1OC[C@](C)(O)[C@H](NC)[C@H]1O [Netilmicin Sulfate],3.96%
8,CC(C)(O)c1ccccc1CC[C@@H](SCC1(CC(=O)O)CC1)c1cccc(/C=C/c2ccc3ccc(Cl)cc3n2)c1 [Montelukast Sodium],-16.5%
9,O=C1NC(=O)C(c2ccccc2)(c2ccccc2)N1 [Phenytoin],15.6%
10,CC(=O)OCC[N+](C)(C)C [Acetylcholine iodide],16.5%
11,OCCN1C[C@H](O)[C@@H](O)[C@H](O)[C@H]1CO [Miglitol],18.7%
12,S=C(NCc1ccc2c(c1)OCO2)N1CCN(c2ncnc3c2oc2ccccc23)CC1 [Amuvatinib (MP-470)],0.0874%
13,Cn1cnc([N+](=O)[O-])c1Sc1ncnc2[nH]cnc12 [Azathioprine],1.42%
14,CC(=O)Oc1cc2c(s1)CCN(C(C(=O)C1CC1)c1ccccc1F)C2 (stereo unspecified) [Prasugrel],44.5%
15,CC(=O)Oc1cc2c(s1)CCN(C(C(=O)C1CC1)c1ccccc1F)C2 (stereo unspecified) [Prasugrel Hydrochloride],> 100%
16,CC(C)C(=O)Nc1ccc([N+](=O)[O-])c(C(F)(F)F)c1 [Flutamide],25%
17,C#C[C@]1(O)CC[C@H]2[C@@H]3CCC4=CCCC[C@@H]4[C@H]3C(=C)C[C@@]21CC [Desogestrel],49.9%
18,CN1CCN(c2cc3c(cc2F)c(=O)c(C(=O)O)cn3-c2ccc(F)cc2)CC1 [Difloxacin HCl],-4.09%
19,O=C(O)CCCC[C@@H]1SC[C@@H]2NC(=O)N[C@@H]21 [Biotin (Vitamin B7)],-7.36%
20,COCC(=O)Nc1c(I)c(C(=O)NCC(O)CO)c(I)c(C(=O)N(C)CC(O)CO)c1I (stereo unspecified) [Iopromide],86.2%
21,CCOC(=O)Nc1ccc(NCc2ccc(F)cc2)nc1N [Flupirtine maleate],35.8%
22,C[C@H](CCC(=O)O)[C@H]1CC[C@H]2[C@@H]3CC[C@@H]4C[C@H](O)CC[C@]4(C)[C@H]3CC[C@]12C [Lithocholic acid],17.1%
23,N[C@@H](CSCCCO)C(=O)O [Fudosteine],17.4%

# Single values from the results shown.
# Entry for O=C1NC(=O)C(c2ccccc2)(c2ccccc2)N1 [Phenytoin] under inhibition of TGF-beta1-induced alpha-SMA expression: 15.6%
# Entry for C#C[C@]1(O)CC[C@H]2[C@@H]3CCC4=CCCC[C@@H]4[C@H]3C(=C)C[C@@]21CC [Desogestrel] under inhibition of TGF-beta1-induced alpha-SMA expression: 49.9%

# Going on with the list:

row,Structure (SMILES),inhibition of TGF-beta1-induced alpha-SMA expression
1,CC(=O)SCC(Cc1ccccc1)C(=O)NCC(=O)OCc1ccccc1 (stereo unspecified) [Racecadotril],-2.59%
2,COC(=O)C1=C(C)NC(C)=C(C(=O)OC(C)C)C1c1cccc2nonc12 (stereo unspecified) [Isradipine],-2.53%
3,CCNC(=O)[C@@H]1CCCN1C(=O)[C@H](CCCN=C(N)N)NC(=O)[C@H](CC(C)C)NC(=O)[C@@H](C)NC(=O)[C@H](Cc1ccc(O)cc1)NC(=O)[C@H](CO)NC(=O)[C@H](Cc1c[nH]c2ccccc12)NC(=O)[C@H](Cc1cnc[nH]1)NC(=O)[C@@H]1CCC(=O)N1 [Alarelin Acetate],14.9%
4,CCOC(=O)[C@H](CCc1ccccc1)N[C@@H](C)C(=O)N1Cc2cc(OC)c(OC)cc2C[C@H]1C(=O)O [Moexipril HCl],14.9%
5,CN1CCC(OC(c2ccccc2)c2ccccc2)CC1 [Diphenylpyraline HCl],25.9%
6,O=c1[nH]cnc2[nH]ncc12 [Allopurinol Sodium],17%
7,C[N+](C)(C)CCO.[Cl-] [Choline Chloride],-20.9%
8,C/C=C1\[C@H]2C=C(C)C[C@]1(N)c1ccc(=O)[nH]c1C2 [(-)-Huperzine A (HupA)],10.7%
9,Clc1ccc(Nc2nnc(Cc3ccncc3)c3ccccc23)cc1 [Vatalanib (PTK787) 2HCl],-53%
10,O=c1[nH]cnc2c1ncn2[C@H]1CC[C@@H](CO)O1 [Didanosine],40%
11,CN(C/C=C/C#CC(C)(C)C)Cc1cccc2ccccc12 [Terbinafine HCl],22.1%
12,CN(C/C=C/C#CC(C)(C)C)Cc1cccc2ccccc12 [Terbinafine],17.5%
13,Nc1nc(O)c2ncn(CCC(CO)CO)c2n1 [Penciclovir],-23.9%
14,Fc1ccc([C@@H]2CCNC[C@H]2COc2ccc3c(c2)OCO3)cc1 [Paroxetine HCl],31.8%
15,Fc1ccc([C@@H]2CCNC[C@H]2COc2ccc3c(c2)OCO3)cc1 [Paroxetine mesylate],57.6%
16,CN(C)CCCN1c2ccccc2CCc2ccccc21 [Imipramine HCl],74.9%
17,C[C@H]1COc2c(N3CCN(C)CC3)c(F)cc3c(=O)c(C(=O)O)cn1c23 [Levofloxacin],-5.11%
18,C[C@H]1COc2c(N3CCN(C)CC3)c(F)cc3c(=O)c(C(=O)O)cn1c23 [Levofloxacin hydrate],2.46%
19,NC(CO)C(=O)NNCc1ccc(O)c(O)c1O (stereo unspecified) [Benserazide HCl],18.7%
20,CCCC(=O)OCOC(=O)C1=C(C)NC(C)=C(C(=O)OC)C1c1cccc(Cl)c1Cl (stereo unspecified) [Clevidipine Butyrate],13.8%
21,CC(=O)Oc1ccccc1C(=O)O.CC(=O)Oc1ccccc1C(=O)O.NC(N)=O [Carbasalate Calcium],6.11%
22,CC1(C)S[C@@H]2[C@H](NC(=O)[C@H](N)c3ccccc3)C(=O)N2[C@H]1C(=O)OCOC(=O)[C@@H]1N2C(=O)C[C@H]2S(=O)(=O)C1(C)C [Sultamicillin],7.28%
23,O=C1c2cccc3c2[C@H](CCC3)CN1[C@@H]1CN2CCC1CC2 [Palonosetron HCl],58.3%
